PubChem BioAssay AID743454 | Peter MacCallum Cancer Centre – 2014

Screen: 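Genes whose loss kills vorinostat-resistant colon cancer cells under vorinostat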 (primary screen)
System: human HCT116-VR colon cancer cells, selected for vorinostat resistance
Knock-down reagent: siRNA pool against human genes, 40 nM siRNA pool
Time to read-out: vorinostat for 24 h, read-out about 72 h after transfection
Treatment: vorinostat at 2.5 µM final
Measured: 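Two measures, CellTiter-Fluor viability and luminescent caspase 3/7 activity, each as fold change against same-plate mock wells, mean of duplicates, then screen-wide robust z-score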
Scale: viability robust z-score: higher = more viable cells than screen typical; caspase robust z-score: higher = more caspase 3/7 activity than screen typical
Active means: 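a knock-down is a hit when classed RV1 or RV2 for lowered viability, or CA1 or CA2 for caspase activation; those lethal without drug were dropped; hits were retested singly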
This is one part, drawn at random, of about 18,000 reagents tested. 450 of all reagents (2.5%) were called active. 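Single biological run; no consistent viability z cut-off exists, so the class columns, not z-scores, define the calls.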 The numbers tell different reagents against one gene apart. No sequences are given here.

no.	gene knocked down	pool no.	viability hit class	caspase hit class	viability robust z-score	caspase robust z-score	Call
1	CT47A1 (GeneID 728096)	1	no change	no change	0.49	1.94	inactive
2	EEF1A2 (GeneID 1917)	1	no change	no change	0.86	-0.32	inactive
3	PTPN20 (GeneID 26095)	1	no change	no change	0.64	0.28	inactive
4	PTPN20 (GeneID 26095)	2	no change	no change	0.4	-0.24	inactive
5	TWIST1 (GeneID 7291)	1	no change	no change	-1.17	-1.06	inactive
6	PDHB (GeneID 5162)	1	no change	no change	0	-0.77	inactive
7	PPP1R3C (GeneID 5507)	1	no change	no change	0.52	0.11	inactive
8	MAGEB4 (GeneID 4115)	1	no change	no change	0.48	0.5	inactive
9	SLK (GeneID 9748)	1	no change	no change	0.67	-0.78	inactive
10	LSAMP (GeneID 4045)	1	no change	no change	1.54	0.12	inactive
11	CAPN5 (GeneID 726)	1	no change	no change	0.64	0.8	inactive
12	NGDN (GeneID 25983)	1	no change	no change	-1.02	-0.56	inactive
13	PSMB9 (GeneID 5698)	1	no change	no change	-0.9	2.31	inactive
14	ATP1B1 (GeneID 481)	1	no change	no change	0.43	-1.09	inactive
15	PEA15 (GeneID 8682)	1	no change	no change	0.08	-1.02	inactive
16	BAALC (GeneID 79870)	1	no change	no change	0.52	1.73	inactive
17	CCND3 (GeneID 896)	1	no change	no change	1.29	-0.25	inactive
18	OXT (GeneID 5020)	1	no change	no change	0.44	-0.72	inactive
19	UBE2QL1 (GeneID 134111)	1	no change	no change	-0.27	2.38	inactive
20	RBM12 (GeneID 10137)	1	no change	no change	0.32	-0.86	inactive
21	LY6G6C (GeneID 80740)	1	no change	no change	-0.3	1	inactive
22	DGKI (GeneID 9162)	1	no change	no change	0.83	-0.77	inactive
23	KLHL35 (GeneID 283212)	1	no change	no change	-2.52	-0.62	inactive
24	AGPAT2 (GeneID 10555)	1	no change	no change	-0.21	0.52	inactive
25	H3C8 (GeneID 8355)	1	no change	no change	-0.34	2.17	inactive
26	LRRTM3 (GeneID 347731)	1	no change	no change	0.39	-0.15	inactive
27	RNASE2 (GeneID 6036)	1	no change	no change	0.89	1.52	inactive
28	HTATIP2 (GeneID 10553)	1	no change	no change	-0.12	0.2	inactive
29	SLC35C1 (GeneID 55343)	1	no change	no change	-0.34	0.71	inactive
30	MPZL2 (GeneID 10205)	1	no change	no change	-0.07	-0.42	inactive
31	MTARC1 (GeneID 64757)	1	no change	no change	0.1	-0.52	inactive
32	P2RY8 (GeneID 286530)	1	no change	no change	0.62	-0.64	inactive
33	PLAC8L1 (GeneID 153770)	1	no change	no change	0.25	-0.73	inactive
34	MRAP (GeneID 56246)	1	no change	no change	-0.14	0.4	inactive
35	MMRN2 (GeneID 79812)	1	no change	no change	-1.17	-0.43	inactive
36	FCHSD1 (GeneID 89848)	1	no change	no change	0.84	3.97	inactive
37	CLEC17A (GeneID 388512)	1	no change	no change	0.48	-0.1	inactive
38	PRELID1 (GeneID 27166)	1	no change	no change	0.32	0.43	inactive
39	MMP8 (GeneID 4317)	1	no change	no change	1.2	-0.5	inactive
40	MRPL14 (GeneID 64928)	1	no change	no change	0.58	-0.7	inactive
41	F11 (GeneID 2160)	1	no change	no change	0.43	1.02	inactive
42	TEX264 (GeneID 51368)	1	no change	no change	1.03	-0.29	inactive
43	TMEM86A (GeneID 144110)	1	no change	no change	-0.28	0.67	inactive
44	OR10A7 (GeneID 121364)	1	no change	no change	1.46	3.51	inactive
45	RIC8A (GeneID 60626)	1	no change	no change	0.28	4.75	inactive
46	SACK1D (GeneID 81610)	1	no change	no change	0.1	0.42	inactive
47	IRX2-DT (GeneID 153571)	1	no change	CA1 (caspase activation)	0.42	5.45	active
48	LCE3E (GeneID 353145)	1	no change	no change	0.9	-0.15	inactive
49	FCGR3A (GeneID 2214)	1	no change	no change	-1.13	1.23	inactive
50	GRB10 (GeneID 2887)	1	no change	no change	-2.27	2.05	inactive
51	KLHL26 (GeneID 55295)	1	no change	no change	-0.12	1.92	inactive
52	LOXL1 (GeneID 4016)	1	no change	no change	0.3	0.36	inactive
53	PPL (GeneID 5493)	1	no change	no change	1.04	-0.66	inactive
54	ZFYVE21 (GeneID 79038)	1	no change	no change	0.66	0.97	inactive
55	BICRA (GeneID 29998)	1	no change	no change	0.64	0.46	inactive
56	PGF (GeneID 5228)	1	no change	no change	0.12	-0.88	inactive
57	NECAB3 (GeneID 63941)	1	no change	no change	1.54	-0.88	inactive

Hits, among the entries above:
gene knocked down	pool no.	viability hit class	caspase hit class	viability robust z-score	caspase robust z-score	Call
IRX2-DT (GeneID 153571)	1	no change	CA1 (caspase activation)	0.42	5.45	active
